Results on three molecules are retold here after publication PMC8795797.

Sequences of proteins named here, by UniProt entry; tags and fusion partners are left off.
UniProt Q99558: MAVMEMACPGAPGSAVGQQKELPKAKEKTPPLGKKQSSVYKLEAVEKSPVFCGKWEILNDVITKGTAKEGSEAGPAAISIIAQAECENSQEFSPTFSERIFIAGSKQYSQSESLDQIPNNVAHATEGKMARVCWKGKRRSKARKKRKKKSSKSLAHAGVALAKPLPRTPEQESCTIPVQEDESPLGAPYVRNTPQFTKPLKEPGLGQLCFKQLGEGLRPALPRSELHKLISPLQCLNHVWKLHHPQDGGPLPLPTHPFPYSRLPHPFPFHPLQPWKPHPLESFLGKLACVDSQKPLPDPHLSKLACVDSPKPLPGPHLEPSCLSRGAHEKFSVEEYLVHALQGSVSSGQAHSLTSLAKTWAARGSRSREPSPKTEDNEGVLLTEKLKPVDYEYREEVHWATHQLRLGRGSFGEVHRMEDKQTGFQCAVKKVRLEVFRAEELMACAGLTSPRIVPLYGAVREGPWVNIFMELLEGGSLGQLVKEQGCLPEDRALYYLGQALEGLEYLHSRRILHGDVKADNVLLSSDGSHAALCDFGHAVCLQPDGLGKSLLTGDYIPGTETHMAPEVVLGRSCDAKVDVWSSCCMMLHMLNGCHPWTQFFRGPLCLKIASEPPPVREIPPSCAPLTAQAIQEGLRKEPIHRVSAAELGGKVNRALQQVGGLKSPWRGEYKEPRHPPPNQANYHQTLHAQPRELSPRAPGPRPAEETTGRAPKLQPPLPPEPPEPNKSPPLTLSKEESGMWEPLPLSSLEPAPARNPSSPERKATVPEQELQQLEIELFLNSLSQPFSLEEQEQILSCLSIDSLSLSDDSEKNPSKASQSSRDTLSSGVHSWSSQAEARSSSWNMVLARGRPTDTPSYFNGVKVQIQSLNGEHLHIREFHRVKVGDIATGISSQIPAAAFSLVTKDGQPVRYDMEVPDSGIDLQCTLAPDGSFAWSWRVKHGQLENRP

What all share (assay): co-IP; endogenous proteins in NB4 cell extract; antibody pre-conjugated to Protein A/G magnetic beads, incubated with protein overnight at 4 °C; western blot of the precipitate; IgG control
In general terms: A western blot detects proteins with antibodies after separation by electrophoresis.

For assay [1], the target named is T1, ZFP91 zinc finger protein (human (endogenous in NB4)) (UniProt Q96JP5).
T1 sequence: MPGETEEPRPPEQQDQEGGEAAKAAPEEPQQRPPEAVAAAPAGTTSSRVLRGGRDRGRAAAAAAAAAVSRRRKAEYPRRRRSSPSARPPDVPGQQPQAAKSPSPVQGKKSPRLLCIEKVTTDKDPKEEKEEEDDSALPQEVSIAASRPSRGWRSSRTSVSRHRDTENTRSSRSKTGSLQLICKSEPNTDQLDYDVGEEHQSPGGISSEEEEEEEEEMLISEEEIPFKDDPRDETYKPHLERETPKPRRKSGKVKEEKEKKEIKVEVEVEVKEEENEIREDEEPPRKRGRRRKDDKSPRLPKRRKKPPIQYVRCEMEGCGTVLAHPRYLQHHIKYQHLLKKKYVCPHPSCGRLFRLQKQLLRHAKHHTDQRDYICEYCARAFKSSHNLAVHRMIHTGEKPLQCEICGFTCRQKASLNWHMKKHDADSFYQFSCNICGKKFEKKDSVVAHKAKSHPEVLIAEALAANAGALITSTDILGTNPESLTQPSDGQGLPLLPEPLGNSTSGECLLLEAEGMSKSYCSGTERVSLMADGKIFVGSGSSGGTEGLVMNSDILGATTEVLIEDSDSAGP

For assay [2], the target named is NIK (human (endogenous in NB4)) (UniProt Q99558).
The target of assay [3] is T2, receptor-interacting serine/threonine-protein kinase 1 (human (endogenous in NB4)), Q13546.
T2 chain: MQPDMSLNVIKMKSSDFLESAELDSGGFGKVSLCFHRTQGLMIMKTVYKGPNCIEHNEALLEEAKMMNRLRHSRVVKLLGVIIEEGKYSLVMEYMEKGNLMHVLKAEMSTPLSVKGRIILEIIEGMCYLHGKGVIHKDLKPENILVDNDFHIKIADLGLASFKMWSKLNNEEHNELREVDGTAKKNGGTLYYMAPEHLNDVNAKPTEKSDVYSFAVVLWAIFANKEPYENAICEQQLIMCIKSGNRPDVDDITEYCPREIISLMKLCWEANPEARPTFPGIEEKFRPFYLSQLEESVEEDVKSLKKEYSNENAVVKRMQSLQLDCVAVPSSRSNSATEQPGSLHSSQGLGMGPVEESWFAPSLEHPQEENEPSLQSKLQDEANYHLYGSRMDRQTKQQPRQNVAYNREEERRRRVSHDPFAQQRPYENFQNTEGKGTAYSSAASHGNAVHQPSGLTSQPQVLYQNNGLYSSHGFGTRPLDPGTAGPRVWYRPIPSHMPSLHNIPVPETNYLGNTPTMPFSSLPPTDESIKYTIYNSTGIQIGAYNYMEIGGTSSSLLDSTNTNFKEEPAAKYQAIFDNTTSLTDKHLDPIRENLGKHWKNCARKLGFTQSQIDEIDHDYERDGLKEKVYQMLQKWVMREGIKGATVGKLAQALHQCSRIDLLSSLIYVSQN
The following applies: remark: other sources report otherwise.

In assay [4] the target is receptor-interacting serine/threonine-protein kinase 1 (human (endogenous in NB4)) (UniProt Q13546).

These are yes or no findings as the source states them, for the method shown. Binding seen in cells or lysates may run through a third protein. Some results given as binding are weak or reduced against the parent protein; the word gives no strength.

Take “receptor-interacting serine/threonine-protein kinase 1 (from UniProt Q13546 1-671)”: the binding result in assay [1] and in assay [2] was “binds” each time.

B1: TRAF2, Q12933 1-501 (protein)
chain: MAAASVTPPGSLELLQPGFSKTLLGTKLEAKYLCSACRNVLRRPFQAQCGHRYCSFCLASILSSGPQNCAACVHEGIYEEGISILESSSAFPDNAARREVESLPAVCPSDGCTWKGTLKEYESCHEGRCPLMLTECPACKGLVRLGEKERHLEHECPERSLSCRHCRAPCCGADVKAHHEVCPKFPLTCDGCGKKKIPREKFQDHVKTCGKCRVPCRFHAIGCLETVEGEKQQEHEVQWLREHLAMLLSSVLEAKPLLGDQSHAGSELLQRCESLEKKTATFENIVCVLNREVERVAMTAEACSRQHRLDQDKIEALSSKVQQLERSIGLKDLAMADLEQKVLEMEASTYDGVFIWKISDFARKRQEAVAGRIPAIFSPAFYTSRYGYKMCLRIYLNGDGTGRGTHLSLFFVVMKGPNDALLRWPFNQKVTLMLLDQNNREHVIDAFRPDVTSSSFQRPVNDMNIASGCPLFCPVSKMEAKNSYVRDDAIFIKAIVDLTGL
B1: the binding entry in assay [3] is “binds”.

B2: ZFP91 zinc finger protein (protein, UniProt Q96JP5 1-570)
chain: T1 sequence
Regarding B2, in assay [4], the binding result is on record as “binds”.
